# The entries are a selection whose mix differs from that of the whole data set. At the low end of the ranking the order means little.
# Target: SPI1 (UniProt P17947)
# Experiment: DAPPL (digital affinity profiling via proximity ligation, sequencing)
# Details: 10 mM Tris-HCl pH 7.5, 50 mM NaCl, 1 mM DTT, 4% glycerol, room temperature, 30 min; GST-TFs on glutathione beads, 16-mer random dsDNA library, 0.1% …; high values mean tight binding; double strand, one strand shown; scale: fold enrichment (6-mer frequency, TF over GST control)
row,Sequence,binding signal
1,AGAATA,1
2,CGGCAC,0.985
3,CCAAGT,0.89
4,TGAAAT,1.02
5,CATCGT,0.892
6,CGCTGT,0.882
7,TTTCCC,1.69
8,ATCGAC,1.15
9,TTTGCC,1.23
10,ACAGCC,0.997
11,ACGTAC,1.18
12,CCGTTA,0.932
13,ATGGGG,1.11
14,AGCGAA,0.938
15,CTAGGA,0.805
16,CAGACT,0.997
17,GATGGA,0.88
18,CTGTGG,0.881
19,CGCTTG,0.975
20,TCTTCG,1.47

row,Sequence,binding signal
1,GCCGAA,0.98
2,TTGGAT,0.918
3,TAAGGG,0.978
4,TAACCG,0.976
5,CCAAGC,0.956
6,TCTTCC,2.46
7,AGGCAC,0.806
8,AGATCT,0.96
9,AGGCTT,0.914
10,AGCGCC,0.99
11,TTCTGA,1.21
12,ATATTG,1.28
13,TGAATG,1.26
14,GCTGGC,1
15,GAATAG,0.978
16,TAGTCA,0.871
17,ACAAGT,0.819
18,AACCCC,1.12
19,AGATGT,0.858

# Copied from the list:
# ACGTAC | binding signal: 1.18
# GCCGAA | binding signal: 0.98

# Reference: publication PMC7862700
